The record followed here is PubChem BioAssay AID2685 (National Center for Advancing Translational Sciences (NCATS), 2010).

Each structure is given as a SMILES string. This is one part of the list. Further columns of the screen follow, without active or inactive calls. Most of these compounds were active or inconclusive in the main read-out, so they are no random draw. Potencies come from curve fits of mixed quality, noted in brackets.

The experiment in a line: qHTS Assay for Lipid Storage Modulators in Drosophila S3 Cells.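 On cell number change: cells counted by Cell Tracker Red CMTPX staining in the red channel.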 The note with it: BODIPY lipid droplet fluorescence, 18-24 h; for cell number change: measured here: cell count max response, cells fed with added oleic acid. The text has this:
NIH Molecular Libraries Probe Production Centers Network [MLPCN] NIH Chemical Genomics Center [NCGC] MLPCN Grant: 1 R03 MH085686-01 Assay Submitter (PI): Beller, Mathias; Max-Planck-Institut fur Biophysikalische Chemie NCGC Assay Overview: Storing lipids as a reservoir for energy or the anabolism of elementary metabolites is a common feature of probably all cells and is conserved from bacteria to humans. The universal cellular lipid storage organelle is the so-called lipid storage droplet (LD). Although ubiquitous, LDs share a simple structure composed of a hydrophobic core that harbors the storage lipids, which is shielded by a droplet-specific phospholipid monolayer to which proteins are attached. The current model of LD biogenesis involves an incorporation of the lipid core into the membrane leaflets of the endoplasmic reticulum (ER) followed by a subsequent budding-like maturation of a LD, which ultimately pinches off. Once released, LD volume can increase by localized lipogenesis or fusion of existing droplet. Storage lipids are re-mobilized enzymatically by lipase activity. Lipase regulation in the adipocyte is heavily studied and involves multiple components including catecholamine signaling, the LD-associated proteins Perilipin and comparative gene identification (CGI-58) and at least two lipases named hormone sensitive lipase (HSL) and adipocyte triglyceride lipase (ATGL). LD regulation outside of the adipocyte is poorly understood and only few components are known. However, there is an urgent need to learn more about ectopic fat depots as mislocalized storage of lipids, for example in the liver or muscle, is an eminent health problem associated with insulin resistance or the metabolic syndrome. We developed a laser-scanning cytometer assay to enable 1,536-well screening and combined the results of the small molecules screen with an RNAi database based on lipid storage.
Triacsin C (Sigma-Aldrich T-4540), an inhibitor of long-chain fatty acyl CoA synthetase that blocks synthesis of triglycerides, was used as a positive control for lipid under-storage. A total of 23 nL of compound solution of different concentrations were transferred to the assay plates using a Kalypsys pin tool equipped with a 1,536-pin array containing 10-nL slotted pins (FP1S10, 0.457-mm diameter, 50.8 mm long; V&P Scientific). One microliter of oleic acid (400 uM) was added, and the plate was lidded with stainless steel rubber gasket lined lids containing pinholes. […] Fluorescence was detected by excitation of the fluorophores with a 488-nm laser on an Acumen Explorer (TTP Lab Tech). The total intensity in channel 2 (500-530 nm) reflected lipid droplet accumulation. Cells were detected using channel 3 (575-640 nm) with 5-um width and 100-um depth filters. The ratio of the number of objects in PMT channel 2 over the number of objects in PMT channel 3 was also calculated. Percent activity was computed relative to an internal control (100% inhibited lipid droplet deposition due to the presence of 20 uM Triacsin C), which was added to 32 wells/plate.
In general terms: qHTS replaces the single test concentration by a dilution series.

Setting [1] is: measured here: lipid fluorescence (Fed channel) AC50, cells fed with added oleic acid.
Where [2] appears, read: measured here: cell number channel AC50, cells fed with added oleic acid.

Take `COc1ccc(NC(=O)CN(C)C(=O)CSC(c2ccccc2)c2ccccc2)cc1`: the cell number change is -13.4%. Further, under setting [1], the AC50 is 29.1 µM [falling, single point]. For `COC(=O)C1=C(c2ccc3ccccc3c2)C[C@@H]2CC[C@H]1N2C(=O)NCCO`, the cell number change turned out to be 12.6%. As for `C=CCn1c(O)c(C(CC)=NCCc2ccccc2)c(=O)[nH]c1=O`, the cell number change amounted to 72.6%. The half-maximal activity concentration (AC50) under setting [2] was 9.2 µM [rising, partial curve]. Moreover, the half-maximal activity concentration (AC50) under setting [1] was 3.26 µM [rising, partial curve]. With `CSc1ccc(CN2CCN(C(=O)COc3cccc(C)c3)CC2)cc1`, the cell number change stood at 24.9%. Take `CC(C)OC1CCCC(O)C1CC(=O)O` (configuration not stated): the cell number change was -37.3%. In addition, the AC50 under setting [2] was 0.651 µM [falling, full curve]. In addition, the AC50 under setting [1] was 23.1 µM [falling, partial curve]. Regarding `O=c1[nH]c(=O)n(-c2ccccc2F)c(O)c1/C=C1\C=Nc2ccccc21`, the cell number change was -6.18%. Besides, the AC50 under setting [1] was 9.2 µM [falling, single point]. Turning to `CCN1C(=O)NC(=O)/C(=C\c2cn(CC(=O)N3CCCCC3)c3ccccc23)C1=O`, the cell number change was 2.94%. For the same molecule, the AC50 under setting [1] is 0.206 µM [falling, single point]. As to `CCC(C)N1Cc2ccccc2C1=N` (configuration not stated), the cell number change was -7.74%. Moreover, under setting [1], the concentration at half-maximal activity (AC50) is 6.51 µM [rising, single point]. Consider `CCCCOc1ccc(CN2CCN(CCO)CC2)cc1`, for which the cell number change was -22.2%. For the same molecule, the AC50 under setting [2] was 0.116 µM [falling, full curve, poor fit]. Also, under setting [1], the AC50 was 25.9 µM [falling, single point]. In the case of `COP(=O)(OC)C1(Nc2ccc(C)cc2)CCCCC1`, the cell number change was -83.1%. Further, the AC50 under setting [2] is 18.4 µM [falling, single point]. Besides, under setting [1], the AC50 was 0.146 µM [rising, full curve, poor fit]. With `COc1ccc2c(c1)c(C(=O)CN1CCC3(CC1)OCCO3)c(C)n2Cc1ccccc1`, the cell number change turned out to be 15%.

Consider `Cc1cccc(NP(=O)(Oc2ccccc2)Oc2ccccc2)c1C`, for which the cell number change is -0.417%. Moreover, the AC50 under setting [1] was 0.164 µM [falling, full curve, poor fit].

For the molecule `NS(=O)(=O)c1ccc(N=Cc2c(O)n(C3CCCCC3)c(=O)n(C3CCCCC3)c2=O)cc1`, the cell number change was -40.4%. Under setting [2], the AC50 is 29.1 µM [falling, single point]. For the same molecule, under setting [1], the AC50 was 29.1 µM [falling, single point]. With `OC[C@H]1O[C@@H](n2cnc3cc(Cl)c(Cl)cc32)[C@H](O)[C@@H]1O`, the cell number change came out at 7.39%. Further, the AC50 under setting [1] is 4.11 µM [rising, single point]. As to `CCCCn1c(O)c(C=NCCCn2ccnc2)c(=O)[nH]c1=O`, the cell number change was determined as 4.99%. The AC50 under setting [1] was 5.8 µM [rising, full curve, poor fit].

`O=Cc1cn(CCCOc2ccccc2)c2ccccc12`: the cell number change is 8.03%. Besides, the half-maximal activity concentration (AC50) under setting [1] is 5.8 µM [falling, full curve]. Regarding `CCCCn1c(O)c(C(CC)=NCCN2CCCCC2)c(=O)[nH]c1=O`, the cell number change is 2.85%. On to `O=c1c(/C=N/N2CCOCC2)c(O)n(-c2ccccc2)c(=S)n1-c1ccccc1`, for which the cell number change worked out at 3.4%. The AC50 under setting [1] is 0.164 µM [falling, full curve, poor fit]. For `CCCCCn1c(=O)c(C(=O)Nc2cccc(C)c2)c(O)c2ccccc21`, the cell number change stood at 12%.

For `COC(=O)C1=C(c2ccc(-c3ccccc3)c(F)c2)C[C@@H]2CC[C@H]1N2C(=O)NCCOc1ccccc1Cl`, under setting [1], the AC50 is 20.6 µM [falling, partial curve]. On to `CCOc1ccc(N=Cc2c(O)n(CCc3ccc(OC)c(OC)c3)c(=O)[nH]c2=O)cc1`, for which the concentration at half-maximal activity (AC50) under setting [2] was 6.51 µM [rising, single point]. For the molecule `COC(=O)C(O)(c1ccc(NC(=O)Oc2ccccc2)cc1)C(F)(F)F` (configuration not stated), the cell number change is -41.2%. Also, the half-maximal activity concentration (AC50) under setting [2] is 2.06 µM [falling, partial curve, poor fit]. Turning to `O=c1c2ccccc2nc(-c2ccoc2)n1-c1ccccc1`, under setting [2], the AC50 was 2.31 µM [rising, single point]. `CSc1ncc(/C=C2/C(=O)NC(=O)N(C3CCCCC3)C2=O)cn1`: the cell number change is -4.62%. Moreover, the half-maximal activity concentration (AC50) under setting [1] is 29.1 µM [falling, single point]. Take `C[C@]12C=CC(=O)C=C1C=C[C@@H]1C2CC[C@]2(C)C(=O)CCC12` (some centres not stated): the cell number change was -22.2%. The AC50 under setting [1] was 29.1 µM [rising, partial curve]. Take `COc1ccc(C2=CC(c3ccc(OC)c(OC)c3)c3c(c4ccccc4oc3=O)O2)cc1OC` (configuration not stated): the cell number change was 7.67%. Moreover, the half-maximal activity concentration (AC50) under setting [1] is 23.1 µM [rising, single point]. With `Cn1cccc1CNCCc1ccccc1F`, the cell number change is -29.9%. Besides, under setting [2], the AC50 was 4.11 µM [falling, full curve, poor fit].

Consider `CN(Cc1ccccc1)C(=O)Cn1c(=O)oc2cc(S(=O)(=O)N3CCCC3)ccc21`, for which the concentration at half-maximal activity (AC50) under setting [2] was 0.58 µM [rising, single point]. Take `Cc1nc2ccccc2c(=O)n1-c1cccc(O)c1`: the cell number change came to 10.6%. The AC50 under setting [1] is 0.00651 µM [falling, full curve, poor fit]. In the case of `CC1CCCCN1Cc1ccc(Cl)nc1` (configuration not stated), the cell number change came to 8.72%. Moreover, the AC50 under setting [2] is 1.84 µM [falling, partial curve, poor fit]. In the case of `O=C1CC(=O)N(Cc2ccccc2)C(=O)N1CCCCCCN1C(=O)CC(=O)N(Cc2ccccc2)C1=O`, the cell number change worked out at 32.2%.

Usually AC50 stands for the midpoint of the concentration-response curve, whichever way the signal moves.
